Results from patent publication US7956188B2, “Acetamide compounds as fungicides” (Syngenta Crop Protection, Inc., priority 2004, dated 2011).
Some results were stated once for a whole list of compounds, not compound by compound.

Tests used:
[1] = test system: Pythium ultimum; experiment: Pythium ultimum (Damping off) growth inhibition in potato dextrose broth, microtiter plate; assay type: cell-based; conditions: 20 ppm, 24° C., inhibition of growth determined photometrically after 48 hours
[2] = test system: Erysiphe graminis f.sp. hordei; experiment: leaf disk assay, Erysiphe graminis f.sp. hordei (barley powdery mildew); assay type: in vivo; conditions: 200 ppm; barley leaf segments, preventive, assessed four days after inoculation
[3] = test system: Phytophthora infestans; assay type: in vivo; conditions: 200 ppm; tomato leaf disks, preventive, assessed four days after inoculation
[4] = test system: Plasmopara viticola; experiment: leaf disk assay, Plasmopara viticola (downy mildew of grapevine); assay type: in vivo; conditions: 200 ppm; grapevine leaf disks, preventive, assessed seven days after inoculation

Compound | control of fungal infection [1] [%] | control of fungal infection [2] [%] | control of fungal infection [3] [%] | control of fungal infection [4] [%]
CSC(Oc1ccc2ncc(Br)cc2c1)C(=O)NC(C)(C)c1ccccc1 (centres unmarked) [189 (57)] | ≥ 60 | ≥ 60 | – | –
CSC(Oc1ccc2ncc(Cl)cc2c1)C(=O)NC(C)(C#N)C(C)C (centres unmarked) [38 (58)] | – | ≥ 60 | – | –
CNC(=O)C(C)(C)NC(=O)C(Oc1ccc2ncc(Br)cc2c1)SC (centres unmarked) [62 (57)] | ≥ 60 | ≥ 60 | ≥ 60 | –
C#CCNC(=O)C(Oc1ccc2oc3ccccc3c2c1)SC (racemic) [84 (50)] | – | ≥ 60 | – | –
CSC(Oc1cc(C)c(Br)c(C)c1)C(=O)NC(C)(C)C (centres unmarked) [12 (15), 2-(4-bromo-3,5-dimethylphenoxy)-2-methylthio-N-(2-methyl-prop-2-yl)acetamide] | – | – | ≥ 60 | –
CSC(Oc1ccc2oc3ccccc3c2c1)C(=O)NC(C)(C#N)C(C)C (mixture of isomers) [38 (50)] | – | ≥ 60 | – | –
CSC(Oc1ccc2ncc(F)cc2c1)C(=O)NC(C)(C)C (centres unmarked) [12 (59), 2-(3-fluoroquinolinyl-6-oxy)-2-methylthio-N-(2-methylprop-2-yl)acetamide] | ≥ 60 | – | ≥ 60 | ≥ 60
CSC(Oc1cc(C)c2ncc(Br)cc2c1)C(=O)NC(C)(C)C (centres unmarked) [12 (72), 2-(3-bromo-8-methylquinolinyl-6-oxy)-2-methylthio-N-(2-methylprop-2-yl)acetamide] | – | – | ≥ 60 | ≥ 60
CCOCC(C)(C)NC(=O)C(Oc1cc(Cl)c2ncc(Br)cc2c1)SC (centres unmarked) [68 (62)] | – | – | – | ≥ 60
CSC(Oc1cc(F)c2ncc(Br)cc2c1)C(=O)NC(C)(C)C (centres unmarked) [12 (62B), 2-(3-Bromo-8-fluoro-quinolin-6-yloxy)-N-tert-butyl-2-methylsulfanyl-acetamide] | – | – | ≥ 60 | –
CSC(Oc1ccc2ncc(Cl)cc2c1)C(=O)NC(C)(C)C#N (racemic) [35 (58)] | ≥ 60 | ≥ 60 | – | –
COCC(C)(C)NC(=O)C(Oc1ccc2ncc(Br)cc2c1)SC (centres unmarked) [47 (57)] | ≥ 60 | ≥ 60 | ≥ 60 | ≥ 60
COCC(C)(C#N)NC(=O)C(Oc1ccc2oc3ccccc3c2c1)SC (centres unmarked) [52 (50)] | – | ≥ 60 | – | –
C=CCNC(=O)C(Oc1ccc2ncc(Cl)cc2c1)SC (centres unmarked) [70 (58)] | ≥ 60 | ≥ 60 | ≥ 60 | –
CSC(Oc1cc(Cl)c2ncc(Br)cc2c1)C(=O)NC(C)(C)C (centres unmarked) [12 (62), 2-(3-bromo-8-chloro-quinolin-6-yloxy)-N-tert-butyl-2-methylsulfanyl-acetamide] | – | – | ≥ 60 | –
CSC(Oc1ccc2ncc(Br)cc2c1)C(=O)NC(C)(C)COCc1ccc(F)cc1 (centres unmarked) [198 (57)] | – | ≥ 60 | ≥ 60 | –
COCC(C)(C#N)NC(=O)C(Oc1cc(C)c(C)c(C)c1)SC (mixture of isomers) [52 (13)] | – | ≥ 60 | ≥ 60 | ≥ 60
C#CCNC(=O)C(Oc1ccc2ncc(Cl)cc2c1)SC (centres unmarked) [84 (58)] | ≥ 60 | ≥ 60 | ≥ 60 | –
CCOCCC(C)(C)NC(=O)C(Oc1ccc2ncc(Br)cc2c1)SC (centres unmarked) [49 (57)] | ≥ 60 | ≥ 60 | ≥ 60 | –
CSC(Oc1ccc2ncc(Br)cc2c1)C(=O)NC1(C#N)CC1 (racemic) [89 (57)] | ≥ 60 | ≥ 60 | ≥ 60 | –
CSC(Oc1ccc2ncc(Br)cc2c1)C(=O)N(C)C(C)(C)C (centres unmarked) [13 (57)] | ≥ 60 | ≥ 60 | ≥ 60 | ≥ 60
CSCC(C)(C#N)NC(=O)C(Oc1cc(F)c2ncc(Br)cc2c1)SC (mixture of isomers) [53 (62B)] | – | – | ≥ 60 | ≥ 60
CSC(Oc1cc(C)c(C)c(C)c1)C(=O)NC(C)(C)C (centres unmarked) [12 (13), 2-(3,4,5-trimethylphenoxy)-2-methylthio-N-(2-methyl-prop-2-yl)acetamide] | – | – | ≥ 60 | –
CSC(Oc1ccc2ncc(-c3ccccc3)cc2c1)C(=O)NC(C)(C)/C=C(\C)c1ccccc1 (centres unmarked) [82 (65)] | – | – | ≥ 60 | –
COCC1(NC(=O)C(Oc2ccc3oc4ccccc4c3c2)SC)CC1 (centres unmarked) [231 (50)] | – | – | – | ≥ 60

Compound | control of fungal infection [1] [%] | control of fungal infection [2] [%] | control of fungal infection [3] [%] | control of fungal infection [4] [%]
COCC(C)(C#N)NC(=O)C(Oc1ccc2ncc(F)cc2c1)SC (centres unmarked) [52 (59), 2-(3-fluoroquinolinyl-6-oxy)-2-methylthio-N-(2-cyano-1-methoxyprop-2-yl)acetamide] | ≥ 60 | – | ≥ 60 | ≥ 60
COCC(C)(C#N)NC(=O)C(Oc1ccc2ncc(Cl)cc2c1)SC (centres unmarked) [52 (58)] | ≥ 60 | ≥ 60 | ≥ 60 | ≥ 60
COC(=O)C(C)(C)NC(=O)C(Oc1ccc2ncc(Br)cc2c1)SC (centres unmarked) [60 (57)] | ≥ 60 | ≥ 60 | ≥ 60 | ≥ 60
C#CCNC(=O)C(Oc1ccc2ncc(Br)cc2c1)SC (centres unmarked) [84 (57)] | ≥ 60 | ≥ 60 | – | –
CSC(Oc1ccc2ncc(Br)cc2c1)C(=O)NC(C)(C)CCO (centres unmarked) [40 (57)] | ≥ 60 | ≥ 60 | ≥ 60 | –
CSC(Oc1cc(C)c2ncc(I)cc2c1)C(=O)NC(C)(C)C (centres unmarked) [12 (72A), N-tert-Butyl-2-(3-iodo-8-methyl-quinolin-6-yloxy)-2-methylsulfanyl-acetamide] | – | – | ≥ 60 | –
CSC(Oc1ccc2ncc(Cl)cc2c1)C(=O)NC(C)(C)C (centres unmarked) [12 (58), 2-(3-chloroquinolinyl-6-oxy)-2-methylthio-N-(2-methylprop-2-yl)acetamide] | ≥ 60 | ≥ 60 | ≥ 60 | ≥ 60
C=CCNC(=O)C(Oc1ccc2oc3ccccc3c2c1)SC (racemic) [70 (50)] | – | ≥ 60 | – | –
CSC(Oc1ccc2ncc(Br)cc2c1)C(=O)NC(C)c1ccc2ccccc2c1 (mixture of isomers) [200 (57)] | – | ≥ 60 | – | –
COCCC(C)(C)NC(=O)C(Oc1ccc2ncc(Br)cc2c1)SC (centres unmarked) [48 (57), 2-(3-bromoquinolinyl-6-oxy)-2-methylthio-N-(1-methoxy-3-methylbut-3-yl)acetamide] | ≥ 60 | ≥ 60 | ≥ 60 | ≥ 60
COCC(C)(CO)NC(=O)C(Oc1ccc2ncc(Br)cc2c1)SC (centres unmarked) [42 (57)] | ≥ 60 | ≥ 60 | ≥ 60 | ≥ 60
CSC(Oc1ccc2ncc(Br)cc2c1)C(=O)NC(C)(C)C#N (centres unmarked) [35 (57)] | ≥ 60 | ≥ 60 | – | –
CSC(Oc1cncc(Cl)c1)C(=O)NC(C)(C)C (centres unmarked) [12 (70), 2-(5-chloropyridyl-3-oxy)-2-(methylthio)-N-(2-methylprop-2-yl) acetamide] | ≥ 60 | – | ≥ 60 | –
CSC(Oc1ccc2ncc(Br)cc2c1)C(=O)NC(C)(C)C(=O)N(C)C (centres unmarked) [63 (57)] | ≥ 60 | ≥ 60 | ≥ 60 | ≥ 60
CSC(Oc1ccc2oc3ccccc3c2c1)C(=O)NC(C)(C)C#N (centres unmarked) [35 (50)] | – | ≥ 60 | – | –
COCC1(NC(=O)C(Oc2ccc3ncc(Br)cc3c2)SC)CC1 (racemic) [231 (57)] | ≥ 60 | – | ≥ 60 | –
COCC(C)(C#N)NC(=O)C(Oc1ccc2nc(Cl)sc2c1)SC (centres unmarked) [52 (81)] | ≥ 60 | – | ≥ 60 | ≥ 60
CSC(Oc1ccc2ncc(Br)cc2c1)C(=O)NC(C)(C)CO (centres unmarked) [39 (57), 2-(3-bromoquinolinyl-6-oxy)-2-(methylthio)-N-(1-hydroxy-2-methylprop-2-yl) acetamide] | ≥ 60 | ≥ 60 | ≥ 60 | –
CSC(Oc1ccc2oc3ccccc3c2c1)C(=O)NC(C)(C)C (centres unmarked) [12 (50), 2-(dibenzofuranyl-2-oxy)-2-methylthio-N-(2-methylprop-2-yl)acetamide] | – | ≥ 60 | – | –
COCC(C)(C#N)NC(=O)C(Oc1cc(Br)c2ncccc2c1)SC (centres unmarked) [52 (60)] | – | – | ≥ 60 | ≥ 60
CSC(Oc1ccc2ncc(Br)cc2c1)C(=O)NC(C)(C)/C=C(\C)c1ccccc1 (centres unmarked) [82 (57), 2-(methylthio)-2-(3-bromoquinolinyl-6-oxy)-N-E-(4-phenyl-2-methylpent-3-ene-2-yl)acetamide] | ≥ 60 | – | ≥ 60 | ≥ 60
CSC(Oc1ccc2ncc(Br)cc2c1)C(=O)NC1(C#N)CCOC1C (centres unmarked) [102 (57)] | – | ≥ 60 | ≥ 60 | –
CSC(Oc1ccc2ncc(Br)cc2c1)C(=O)Nc1nccs1 (centres unmarked) [120 (57)] | ≥ 60 | – | – | –
CSCC(C)(C)NC(=O)C(Oc1ccc2ncc(Br)cc2c1)SC (centres unmarked) [50 (57)] | ≥ 60 | ≥ 60 | ≥ 60 | –
